This is an account of results in the supplement of paper PMC8426693.

This is one part of the list.

The first assay concerns SARS-CoV-2 5_SL8 RNA. The experiment in a line: NMR binding call after quantification (hit when 2 of 3 NMR criteria are met) (binary (1 = binding, 0 = not binding)); higher = binding. The following applies: RNA concentration 10 µM; fragment concentration 200 µM; 293 K.
Compound `CCNC(=O)CN1CC(C)OCC1C` (stereo not given) came in with an NMR binding call of 0.

`O=C(NCCN1CCCC1=O)Nc1ccccc1` showed an NMR binding call of 0.

Regarding `NC(=O)c1cnn(CCO)c1`, the NMR binding call stood at 0.

`COc1ccc(CNC(=O)c2cnccn2)cc1` gave an NMR binding call of 0.

Compound `COC(=O)c1sccc1NC(=O)C1CC1` displayed an NMR binding call of 0.

As to `CCc1ncc(CNC)s1`, the NMR binding call was determined as 0.

`CC(=O)Nc1ccccc1O` registered an NMR binding call of 0.

`CNC(=O)NCc1c(F)cccc1Cl` came in with an NMR binding call of 0.

On to `CN1CCN(c2ccc(C#N)cc2)CC1`, for which the NMR binding call is 0.

In turn, `CNc1ncccn1` registered an NMR binding call of 0.

`Cn1cc(C(=O)O)c(-c2ccncc2)n1` displayed an NMR binding call of 0.

Take `CCN(CCO)c1ccc(N)cc1`: the NMR binding call was 0.

`O=C(NCC1CCCO1)N1CCOCC1` (stereo not given) showed an NMR binding call of 0.

Take `CN1CCN(C(=O)CO)CC1`: the NMR binding call is 0.

Consider `CNC1(C(N)=O)CCCC1`, for which the NMR binding call turned out to be 0.

Regarding `CN1CCN(S(=O)(=O)N(C)C)CC1`, the NMR binding call was found to be 0.

As to `O=C(CN1CCCC1)Nc1ccc(F)cc1`, the NMR binding call stood at 0.

For the compound `Cn1cc(Oc2ncncc2Cl)cn1`, the NMR binding call was 0.

Turning to `CC1CCCCN1CCN` (stereo not given), the NMR binding call was 0.

On to `Oc1ccc(CN2CCCC2)c2cccnc12`, for which the NMR binding call is 0.

In turn, `CC(CO)N(C)c1ncccc1F` (stereo not given) displayed an NMR binding call of 0.

Compound `CN(C)C(=O)c1ccc(F)cc1Br` returned an NMR binding call of 0.

As to `COC(=O)c1cccc(NS(C)(=O)=O)c1`, the NMR binding call is 0.

Turning to `CC(=O)NC(C)(C(=O)O)C1CC1` (stereo not given), the NMR binding call stood at 0.

Take `CC(C)c1ccc(C(=O)Nc2ccccn2)cc1`: the NMR binding call is 0.

`O=C(COC(F)F)N1CCCC2(CC2)C1` showed an NMR binding call of 0.

`CC(=O)N1CCN(c2ccc(Cl)cc2)CC1` came in with an NMR binding call of 0.

The compound `Oc1ncc(NCCc2ccccc2)c(O)n1` registered an NMR binding call of 0.

Consider `CC(=O)Nc1ccc(F)c(C(=O)O)c1`, for which the NMR binding call was determined as 0.

For the compound `CC(=O)N1CCCNCC1`, the NMR binding call is 0.

`CCc1noc(C)c1C(=O)Nc1cc(C)on1` came in with an NMR binding call of 0.

On to `CN1CCN(c2ncccc2F)CC1=O`, for which the NMR binding call worked out at 0.

For `CCC(=O)Nc1cccc(N)c1C`, the NMR binding call was determined as 0.

`Cc1ccccc1CNc1nnnn1C`: the NMR binding call came to 0.

In turn, `CC(C)(C)NC(=O)N1CCC(C(N)=O)CC1` yielded an NMR binding call of 0.

For the compound `O=C(C1CC1)N1CCN(c2ccc(F)cc2)CC1`, the NMR binding call stood at 0.

The compound `COc1cccc(CN2CCC(C(N)=O)CC2)c1` registered an NMR binding call of 0.

Turning to `COc1ccc(CN2CCOCC2)cc1OC`, the NMR binding call is 0.

The compound `CNC1(CO)CCOCC1` gave an NMR binding call of 0.

As to `CNS(=O)(=O)CC1CCCCC1`, the NMR binding call amounted to 0.

The subject of a further assay is SARS-CoV-2 attenuator hairpin (att HP) RNA. Described as above. As to conditions: RNA concentration 10 µM; fragment concentration 200 µM; 293 K.
In the case of `CCNC(=O)CN1CC(C)OCC1C` (stereo not given), the NMR binding call was 0.

`O=C(NCCN1CCCC1=O)Nc1ccccc1` displayed an NMR binding call of 0.

For `NC(=O)c1cnn(CCO)c1`, the NMR binding call was 0.

As for `COc1ccc(CNC(=O)c2cnccn2)cc1`, the NMR binding call worked out at 0.

`COC(=O)c1sccc1NC(=O)C1CC1` showed an NMR binding call of 0.

Regarding `CCc1ncc(CNC)s1`, the NMR binding call came out at 0.

Take `CC(=O)Nc1ccccc1O`: the NMR binding call was determined as 0.

`CNC(=O)NCc1c(F)cccc1Cl` showed an NMR binding call of 0.

The compound `CN1CCN(c2ccc(C#N)cc2)CC1` showed an NMR binding call of 0.

As to `CNc1ncccn1`, the NMR binding call is 0.

In turn, `Cn1cc(C(=O)O)c(-c2ccncc2)n1` yielded an NMR binding call of 0.

With `CCN(CCO)c1ccc(N)cc1`, the NMR binding call was determined as 0.

Compound `O=C(NCC1CCCO1)N1CCOCC1` (stereo not given) showed an NMR binding call of 0.

The compound `CN1CCN(C(=O)CO)CC1` yielded an NMR binding call of 0.

As for `CNC1(C(N)=O)CCCC1`, the NMR binding call was determined as 0.

Take `CN1CCN(S(=O)(=O)N(C)C)CC1`: the NMR binding call was 0.

With `O=C(CN1CCCC1)Nc1ccc(F)cc1`, the NMR binding call worked out at 0.

`Cn1cc(Oc2ncncc2Cl)cn1` came in with an NMR binding call of 0.

Regarding `CC1CCCCN1CCN` (stereo not given), the NMR binding call was 0.

`Oc1ccc(CN2CCCC2)c2cccnc12` registered an NMR binding call of 0.

As to `CC(CO)N(C)c1ncccc1F` (stereo not given), the NMR binding call came to 0.

On to `CN(C)C(=O)c1ccc(F)cc1Br`, for which the NMR binding call turned out to be 0.

In the case of `COC(=O)c1cccc(NS(C)(=O)=O)c1`, the NMR binding call is 0.

`CC(=O)NC(C)(C(=O)O)C1CC1` (stereo not given) returned an NMR binding call of 0.

Regarding `CC(C)c1ccc(C(=O)Nc2ccccn2)cc1`, the NMR binding call came to 0.

Regarding `O=C(COC(F)F)N1CCCC2(CC2)C1`, the NMR binding call came to 0.

For the compound `CC(=O)N1CCN(c2ccc(Cl)cc2)CC1`, the NMR binding call is 0.

`Oc1ncc(NCCc2ccccc2)c(O)n1` came in with an NMR binding call of 0.

In turn, `CC(=O)Nc1ccc(F)c(C(=O)O)c1` returned an NMR binding call of 0.

The compound `CC(=O)N1CCCNCC1` came in with an NMR binding call of 0.

`CCc1noc(C)c1C(=O)Nc1cc(C)on1` had an NMR binding call of 0.

Compound `CN1CCN(c2ncccc2F)CC1=O` yielded an NMR binding call of 0.

Take `CCC(=O)Nc1cccc(N)c1C`: the NMR binding call was found to be 0.

With `Cc1ccccc1CNc1nnnn1C`, the NMR binding call is 0.

Compound `CC(C)(C)NC(=O)N1CCC(C(N)=O)CC1` returned an NMR binding call of 0.

Compound `O=C(C1CC1)N1CCN(c2ccc(F)cc2)CC1` displayed an NMR binding call of 0.

Regarding `COc1cccc(CN2CCC(C(N)=O)CC2)c1`, the NMR binding call came to 0.

`COc1ccc(CN2CCOCC2)cc1OC`: the NMR binding call turned out to be 0.

Turning to `CNC1(CO)CCOCC1`, the NMR binding call was determined as 0.

`CNS(=O)(=O)CC1CCCCC1` gave an NMR binding call of 0.

In a further assay the test system is SARS-CoV-2 frameshift pseudoknot (PK) RNA. Described as above. The following applies: RNA concentration 10 µM; fragment concentration 200 µM; 293 K.
In the case of `CCNC(=O)CN1CC(C)OCC1C` (stereo not given), the NMR binding call is 0.

In the case of `O=C(NCCN1CCCC1=O)Nc1ccccc1`, the NMR binding call was determined as 0.

On to `NC(=O)c1cnn(CCO)c1`, for which the NMR binding call worked out at 0.

For the compound `COc1ccc(CNC(=O)c2cnccn2)cc1`, the NMR binding call stood at 0.

Regarding `COC(=O)c1sccc1NC(=O)C1CC1`, the NMR binding call was 0.

Regarding `CCc1ncc(CNC)s1`, the NMR binding call turned out to be 0.

In the case of `CC(=O)Nc1ccccc1O`, the NMR binding call is 0.

For the compound `CNC(=O)NCc1c(F)cccc1Cl`, the NMR binding call stood at 0.

For `CN1CCN(c2ccc(C#N)cc2)CC1`, the NMR binding call was 0.

Turning to `CNc1ncccn1`, the NMR binding call stood at 0.

For the compound `Cn1cc(C(=O)O)c(-c2ccncc2)n1`, the NMR binding call was 0.

As for `CCN(CCO)c1ccc(N)cc1`, the NMR binding call was 0.

Turning to `O=C(NCC1CCCO1)N1CCOCC1` (stereo not given), the NMR binding call was found to be 0.

On to `CN1CCN(C(=O)CO)CC1`, for which the NMR binding call was determined as 0.

For `CNC1(C(N)=O)CCCC1`, the NMR binding call was 0.

For the compound `CN1CCN(S(=O)(=O)N(C)C)CC1`, the NMR binding call is 0.

Turning to `O=C(CN1CCCC1)Nc1ccc(F)cc1`, the NMR binding call was 0.

Consider `Cn1cc(Oc2ncncc2Cl)cn1`, for which the NMR binding call worked out at 0.

As to `CC1CCCCN1CCN` (stereo not given), the NMR binding call came out at 0.

`Oc1ccc(CN2CCCC2)c2cccnc12`: the NMR binding call is 0.

On to `CC(CO)N(C)c1ncccc1F` (stereo not given), for which the NMR binding call amounted to 0.

With `CN(C)C(=O)c1ccc(F)cc1Br`, the NMR binding call stood at 0.

As to `COC(=O)c1cccc(NS(C)(=O)=O)c1`, the NMR binding call was 0.

As for `CC(=O)NC(C)(C(=O)O)C1CC1` (stereo not given), the NMR binding call was determined as 0.

On to `CC(C)c1ccc(C(=O)Nc2ccccn2)cc1`, for which the NMR binding call is 0.

On to `O=C(COC(F)F)N1CCCC2(CC2)C1`, for which the NMR binding call was 0.

Regarding `CC(=O)N1CCN(c2ccc(Cl)cc2)CC1`, the NMR binding call was 0.

Consider `Oc1ncc(NCCc2ccccc2)c(O)n1`, for which the NMR binding call amounted to 0.

`CC(=O)Nc1ccc(F)c(C(=O)O)c1`: the NMR binding call turned out to be 0.

In the case of `CC(=O)N1CCCNCC1`, the NMR binding call came out at 0.

Regarding `CCc1noc(C)c1C(=O)Nc1cc(C)on1`, the NMR binding call turned out to be 0.

As to `CN1CCN(c2ncccc2F)CC1=O`, the NMR binding call came to 0.

For the compound `CCC(=O)Nc1cccc(N)c1C`, the NMR binding call was 0.

With `Cc1ccccc1CNc1nnnn1C`, the NMR binding call amounted to 0.

In the case of `CC(C)(C)NC(=O)N1CCC(C(N)=O)CC1`, the NMR binding call was determined as 0.

Turning to `O=C(C1CC1)N1CCN(c2ccc(F)cc2)CC1`, the NMR binding call came to 0.

On to `COc1cccc(CN2CCC(C(N)=O)CC2)c1`, for which the NMR binding call was found to be 0.

On to `COc1ccc(CN2CCOCC2)cc1OC`, for which the NMR binding call turned out to be 0.

Consider `CNC1(CO)CCOCC1`, for which the NMR binding call is 0.

As to `CNS(=O)(=O)CC1CCCCC1`, the NMR binding call was determined as 0.
